Assay results: article PMC5739603
No constants are given. Whether binding was seen depends on the method and setting. Binding seen in cells or lysates may run through a third protein. For some of these results: Binding can be weak; no strength is given.

B1: RB (retinoblastoma protein) in A549 lysate (protein, UniProt P06400 1-928)
chain: MPPKTPRKTAATAAAAAAEPPAPPPPPPPEEDPEQDSGPEDLPLVRLEFEETEEPDFTALCQKLKIPDHVRERAWLTWEKVSSVDGVLGGYIQKKKELWGICIFIAAVDLDEMSFTFTELQKNIEISVHKFFNLLKEIDTSTKVDNAMSRLLKKYDVLFALFSKLERTCELIYLTQPSSSISTEINSALVLKVSWITFLLAKGEVLQMEDDLVISFQLMLCVLDYFIKLSPPMLLKEPYKTAVIPINGSPRTPRRGQNRSARIAKQLENDTRIIEVLCKEHECNIDEVKNVYFKNFIPFMNSLGLVTSNGLPEVENLSKRYEEIYLKNKDLDARLFLDHDKTLQTDSIDSFETQRTPRKSNLDEEVNVIPPHTPVRTVMNTIQQLMMILNSASDQPSENLISYFNNCTVNPKESILKRVKDIGYIFKEKFAKAVGQGCVEIGSQRYKLGVRLYYRVMESMLKSEEERLSIQNFSKLLNDNIFHMSLLACALEVVMATYSRSTSQNLDSGTDLSFPWILNVLNLKAFDFYKVIESFIKAEGNLTREMIKHLERCEHRIMESLAWLSDSPLFDLIKQSKDREGPTDHLESACPLNLPLQNNHTAADMYLSPVRSPKKKGSTTRVNSTANAETQATSAFQTQKPLKSTSLSLFYKKVYRLAYLRLNTLCERLLSEHPELEHIIWTLFQHTLQNEYELMRDRHLDQIMMCSMYGICKVKNIDLKFKIIVTAYKDLPHAVQETFKRVLIKEEEYDSIIVFYNSVFMQRLKTNILQYASTRPPTLSPIPHIPRSPYKFPSSPLRIPGGNIYISPLKSPYKISEGLPTPTKMTPRSRILVSIGESFGTSEKFQKINQMVCNSDRVLKRSAEGSNPPKPLKKLRFDIEGSDEADGSKHLPGESKFQQKLAEMTSTRTRMQKQKMNDSMDTSNKEEK
B2: lamin B2 (endogenous, A549) (protein, UniProt Q03252 1-620)
chain: MSPPSPGRRREQRRPRAAATMATPLPGRAGGPATPLSPTRLSRLQEKEELRELNDRLAHYIDRVRALELENDRLLLKISEKEEVTTREVSGIKALYESELADARRVLDETARERARLQIEIGKLRAELDEVNKSAKKREGELTVAQGRVKDLESLFHRSEVELAAALSDKRGLESDVAELRAQLAKAEDGHAVAKKQLEKETLMRVDLENRCQSLQEELDFRKSVFEEEVRETRRRHERRLVEVDSSRQQEYDFKMAQALEELRSQHDEQVRLYKLELEQTYQAKLDSAKLSSDQNDKAASAAREELKEARMRLESLSYQLSGLQKQASAAEDRIRELEEAMAGERDKFRKMLDAKEQEMTEMRDVMQQQLAEYQELLDVKLALDMEINAYRKLLEGEEERLKLSPSPSSRVTVSRATSSSSGSLSATGRLGRSKRKRLEVEEPLGSGPSVLGTGTGGSGGFHLAQQASASGSVSIEEIDLEGKFVQLKNNSDKDQSLGNWRIKRQVLEGEEIAYKFTPKYILRAGQMVTVWAAGAGVAHSPPSTLVWKGQSSWGTGESFRTVLVNADGEEVAMRTVKKSSVMRENENGEEEEEEAEFGEEDLFHQQGDPRTTSRGCYVM

Assays:
[1] = target: GST-MCM7-C (C-terminal fragment of MCM7, 219 amino acids); test: pull-down; GST pull-down with MCM7-C and lysates, different amounts of anti-LMNB2 antibody (1, 2.5, 5 ug) as printed; RB read by blot; only the target purified
[2] = target: GST-MCM7-C (C-terminal fragment of MCM7, 219 amino acids); test: pull-down; GST-MCM7 fragments purified on glutathione-Sepharose 4B, with A549 cell lysates; bound protein found by immunoblot; only the target purified
[3] = target: V5-ΔMCM7 (C-terminus deletion mutant of MCM7); test: co-IP; A549 cells with FLAG-MCM7 (full length) or V5-ΔMCM7; lamin B2 of the lysate found by blot

binding [1]	binding [2]	binding [3]	Binder
binds	binds		B1
	binds	no binding	B2
